This test relates to L1210 leukemia ip in BDF1 mice, survival T/C. In words: NCI In Vivo Anticancer Drug Screen. Data for tumor model L1210 Leukemia (intraperitoneal) in B6D2F1 (BDF1) mice. Particulars: T/C endpoint: mean survival time, higher T/C = longer survival.
Setting [1] is: dose: 300.0 mg/kg/injection, schedule: Q01DX001 (ip), vehicle: saline.
The mark [2] stands for this setting: dose: 400.0 mg/kg/injection, schedule: Q04DX003 (ip), vehicle: saline with Tween-80.
The mark [3] stands for this setting: dose: 200.0 mg/kg/injection, schedule: Q04DX003 (ip), vehicle: saline with Tween-80.
[4] abbreviates: dose: 400.0 mg/kg/injection, schedule: Q04DX003 (ip), vehicle: saline.

This note sets out measurements from PubChem BioAssay AID248 (DTP/NCI, 2004).

The list does not hold the whole screen: it gathers tests that were run many times, whatever their T/C, doses with no T/C, and many T/C values between a quarter and a half above the control. Further doses and runs are listed elsewhere. T/C gives the treated animals as a percentage of the vehicle group. Some doses have a count of surviving animals in place of a T/C: the source files T/C as zero there, which appears to mark a toxic dose or a test without result, not a measured value. Some doses without a T/C left all or most animals alive at the check, yet need not have been tolerated: survival well below the control is almost never listed, so the zero probably covers shortened survival too. Counts of survivors are from the toxicity check (mostly the fifth day) where no day follows; animals may have died later. Schedule codes are those of the source, taken here to give the interval after Q, in days (D) or hours (H), and the number of doses after X. Some entries hold several experiments; the values are given in rising order. Where survival is the endpoint, this PubChem deposit counts one and a half times the control or more as active, and values a quarter to a half above the control carry no call in these data; other NCI protocols may use other cut-offs. Additions like (4×) say how often a value occurs here. Some T/C values carry the count of animals alive at the toxicity check (mostly the fifth day); without a count, all were alive then.

As to `COc1cc(NS(C)(=O)=O)ccc1Nc1c2ccc([N+](=O)[O-])cc2nc2c(C)cccc12`, the T/C reads like this: (dose: 0.25 mg/kg/injection, schedule: Q01DX009 (ip), vehicle: saline) 137 % of control; (dose: 0.5 mg/kg/injection, schedule: Q01DX009 (ip), vehicle: saline) 143 % of control; (dose: 2.5 mg/kg/injection, schedule: Q01DX009 (ip), vehicle: saline) 138 % of control; (dose: 2.5 mg/kg/injection, schedule: Q01DX009 (sc), vehicle: saline) 139 % of control [9 of 10 alive]; (dose: 2.8 mg/kg/injection, schedule: Q04DX003 (ip), vehicle: saline) 139 % of control; (dose: 3.75 mg/kg/injection, schedule: Q04DX003 (ip), vehicle: saline) 144 % of control. In addition, the T/C reads like this: (dose: 5.0 mg/kg/injection, schedule: Q01DX009 (ip), vehicle: saline) 127 % of control; (dose: 6.5 mg/kg/injection, schedule: Q01DX001 (ip), vehicle: other) 129 % of control; (dose: 10.0 mg/kg/injection, schedule: Q01DX001 (ip), vehicle: other) 125 % of control; (dose: 10.0 mg/kg/injection, schedule: Q01DX009 (sc), vehicle: saline) 147 % of control; (dose: 22.0 mg/kg/injection, schedule: Q01DX001 (ip), vehicle: other) 136 % of control. Further, the survivor count runs as follows: (dose: 10.0 mg/kg/injection, schedule: Q01DX009 (ip), vehicle: saline) 6 of 6; (dose: 20.0 mg/kg/injection, schedule: Q01DX009 (sc), vehicle: saline) 10 of 10; (dose: 33.0 mg/kg/injection, schedule: Q01DX009 (ip), vehicle: saline) 4 of 6; (dose: 37.0 mg/kg/injection, schedule: Q04DX003 (ip), vehicle: saline) 6 of 6; (dose: 50.0 mg/kg/injection, schedule: Q01DX009 (ip), vehicle: saline) 6 of 6; (dose: 75.0 mg/kg/injection, schedule: Q01DX009 (ip), vehicle: saline) 4 of 6. Also, the survivor count is reported as 5 of 6 (dose: 75.0 mg/kg/injection, schedule: Q04DX003 (ip), vehicle: saline); 2 of 6 (dose: 113.0 mg/kg/injection, schedule: Q01DX009 (ip), vehicle: saline); 1 of 6 under setting [1].

As to `Cc1c(NC(C)C)ccc(NC(C)C)c1C`, the survivor count (dose: 400.0 mg/kg/injection, schedule: Q04DX002 (sc), vehicle: olive oil, sesame oil, peanut oil) is recorded as 1 of 3.

On to `O=C(Nc1ccccn1)C(O)C(O)C(O)C(O)CO` (centres undefined), for which the survivor count is listed as 2 of 3 (dose: 100.0 mg/kg/injection, schedule: Q01DX003 (ip), vehicle: saline); 0 of 3 (dose: 200.0 mg/kg/injection, schedule: Q01DX003 (ip), vehicle: saline); 0 of 3 (dose: 400.0 mg/kg/injection, schedule: Q01DX003 (ip), vehicle: saline).

Turning to `O=C(OC1(c2ccccc2)OC(=O)c2ccccc21)c1ccccc1C(=O)c1ccccc1` (centres undefined), the survivor count under setting [2] is given as 6 of 6.

As to `S=C(N/N=C/c1ccccn1)N/N=C/c1ccccn1`, the T/C by setting is: (dose: 25.0 mg/kg/injection, schedule: Q01DX009 (ip), vehicle: saline with Tween-80) 125 % of control; (dose: 50.0 mg/kg/injection, schedule: Q01DX009 (ip), vehicle: saline with Tween-80) 137 % of control. The survivor count (dose: 75.0 mg/kg/injection, schedule: Q01DX009 (ip), vehicle: saline with Tween-80) is given as 3 of 6; the survivor count (dose: 100.0 mg/kg/injection, schedule: Q01DX009 (ip), vehicle: saline with Tween-80) is 3 of 6; the survivor count under setting [3] was 1 of 6; the survivor count under setting [2] is 0 of 6.

As to `CCN(CC)CCCC(C)Nc1cc(/C=C/c2ccc(Cl)cc2)nc(/C=C/c2ccc(Cl)cc2)n1` (centres undefined), for the setting “dose: 400.0 mg/kg/injection, schedule: Q01DX001 (ip), vehicle: saline”, the survivor count is 3 of 6.

Consider `CC1CN(c2ccc([N+](=O)[O-])cc2)C(C)CN1` (centres undefined), for which the survivor count (dose: 200.0 mg/kg/injection, schedule: Q01DX009 (ip), vehicle: saline) is 1 of 6 and the survivor count under setting [4] is 6 of 6.

With `NC(=NCc1ccccc1)c1ccccc1`, the survivor count runs as follows: (dose: 100.0 mg/kg/injection, schedule: Q04DX003 (ip), vehicle: saline with Tween-80) 1 of 3; under setting [3], 0 of 3; under setting [2], 0 of 3.

Regarding `CSC(N)=NC1CCCCC1`, the survivor count is 1 of 3 (dose: 50.0 mg/kg/injection, schedule: Q04DX002 (ip), vehicle: saline); 0 of 3 (dose: 100.0 mg/kg/injection, schedule: Q04DX002 (ip), vehicle: saline); 0 of 3 (dose: 200.0 mg/kg/injection, schedule: Q04DX002 (ip), vehicle: saline); 0 of 3 (dose: 400.0 mg/kg/injection, schedule: Q04DX002 (ip), vehicle: saline).

As to `Cc1cc(C(C)(CC(C)C)c2ccc(O)c(C)c2)ccc1O`, the survivor count runs as follows: (dose: 200.0 mg/kg/injection, schedule: Q01DX009 (ip), vehicle: gum acacia) 6 of 6; (dose: 400.0 mg/kg/injection, schedule: Q01DX009 (ip), vehicle: gum acacia) 0 of 6.

For the molecule `N#C/C(=C\c1ccccc1)c1cccc(Cl)c1`, the survivor count (dose: 400.0 mg/kg/injection, schedule: Q01DX009 (ip), vehicle: other) was 6 of 6.

On to `O=C(O)/C=C/C(=O)NNC(=O)/C=C/C(=O)O`, for which, under setting [2], the survivor count is reported as 4 of 6.

In the case of `CCN(CC)C(C)COC(=O)c1cc(=O)n(C)c2ccccc12` (centres undefined), under setting [4], the survivor count is 3 of 6.

For `C[n+]1cccc(C(=O)NCCc2c[nH]c3ccccc23)c1`, the survivor count is 6 of 6 (dose: 110.0 mg/kg/injection, schedule: Q01DX009 (ip), vehicle: saline with Tween-80); 0 of 6 (dose: 170.0 mg/kg/injection, schedule: Q01DX009 (ip), vehicle: saline with Tween-80); 2 of 6 under setting [1].

As for `NNC(=O)CNc1ccc(Cl)cc1`, the survivor count is, setting by setting: (dose: 200.0 mg/kg/injection, schedule: Q04DX002 (ip), vehicle: Klucel (hydroxypropylcellulose) (HPC)) 0 of 3 and 1 of 3; (dose: 400.0 mg/kg/injection, schedule: Q04DX002 (ip), vehicle: Klucel (hydroxypropylcellulose) (HPC)) 0 of 3.

Turning to `Nc1cc2ncccc2c2ncccc12`, the survivor count under setting [1] is 1 of 6.

As for `BrCC1OCC2(CO1)COC(CBr)OC2` (centres undefined), the survivor count (dose: 400.0 mg/kg/injection, schedule: Q04DX003 (ip), vehicle: Klucel (hydroxypropylcellulose) (HPC)) is listed as 1 of 6.

For `CC(=O)OC1CCC2(C)C(=CCC3C2CCC2(C)C(C(C)N)CCC32)C1` (centres undefined), the survivor count (dose: 200.0 mg/kg/injection, schedule: Q01DX001 (sc), vehicle: steroid suspending solution) is reported as 4 of 4.

With `CCN(CC)C(=S)S`, the T/C was 97 (2×), 100, 101 % of control (dose: 125.0 mg/kg/injection, schedule: Q01DX009 (ip), vehicle: saline); 93, 95, 100, 103 % of control (dose: 250.0 mg/kg/injection, schedule: Q01DX009 (ip), vehicle: saline); 97 [5 of 6 alive], 98, 98 [4 of 6 alive], 103 % of control (dose: 500.0 mg/kg/injection, schedule: Q01DX009 (ip), vehicle: saline); 112 [5 of 6 alive], 113, 114 [4 of 6 alive], 131 % of control [5 of 6 alive] (dose: 1000.0 mg/kg/injection, schedule: Q01DX009 (ip), vehicle: saline); 131 % of control (dose: 1000.0 mg/kg/injection, schedule: Q01DX010 (ip), vehicle: saline).

Regarding `N#Cc1ccc(NC(=O)COc2cccc(Cl)c2)cc1`, the survivor count (dose: 75.0 mg/kg/injection, schedule: Q01DX001 (ip), vehicle: saline with Tween-80) was 6 of 6.

Regarding `O=[N+]([O-])c1ccccc1N=Nc1c(O)[nH]c2ccc(Cl)cc12`, the survivor count (dose: 200.0 mg/kg/injection, schedule: Q01DX001 (ip), vehicle: saline) is listed as 6 of 6.

With `O=S1(=O)OCc2ccccc21`, the survivor count reads like this: (dose: 200.0 mg/kg/injection, schedule: Q01DX009 (ip), vehicle: acetone) 6 of 6; (dose: 400.0 mg/kg/injection, schedule: Q01DX001 (ip), vehicle: carboxymethylcellulose (CMC)) 0 of 6; under setting [4], 2 of 6.
